# Patent US20230149421A1, “MEDICAMENT FOR PREVENTING OR TREATING IRRITABLE BOWEL SYNDROME OR INFLAMMATORY BOWEL DISEASE” (priority 2020, published 2023)
# Entries after “also recorded” stand apart in the source; their conditions may differ. At least one structure is not confirmed: it was looked up by name or label, or the drawing left a doubt.
# Legend:
# Format in all cases: in vivo, Sprague-Dawley rats
# [1] = test system: DNBS-induced colitis model; assay: Change in body weight and spleen weight in DNBS-induced colitis model; settings: DNBS rats
# Protocol: Sprague-Dawley rats (body weights of 200 to 225 g) which were male albino rats were used as model animals. Three model animals were housed in one cage in a temperature-controlled environment at 22-24° C., 50-60% humidity, and a light cycle of 12 hours, were given ad libitum access to standard laboratory feed and tap water, and were not used for at least one week after being brought into the laboratory.
# A model in which colitis was induced by 2,4-dinitrobenzenesulfonic acid (hereinafter, denoted as DNBS, manufactured by Sigma-Aldrich, Inc.) (in the present specification, referred to as a “DNBS-induced colitis model”) was prepared.
# (§1) The induction of colitis was performed according to the method in Antonioli L, et al. (Non Patent Literature 8). 15 mg of 2,4-dinitrobenzenesulfonic acid (DNBS) in 0.25 ml of 50% ethanol was rectally administered through a polyethylene PE-60 catheter inserted 8 cm proximal to the anus, during a short period of anesthesia by Isoflurane (manufactured by Abbott Laboratories). To the control rat, 0.25 ml of 50% ethanol was administered.
# Food intake was monitored everyday since initiation of the drug therapy. Furthermore, body weights of the rats were measured every morning, and evidence of blood in diarrhea and a stool or rectal bleeding was examined during the experimental period.
# [2] = test system: IL-1β; assay: IL-1β level in colonic tissue (ELISA), DNBS-induced colitis model; settings: DNBS rats, 1 mg/kg oral
# [3] = test system: DNBS-induced colitis model; assay: Microscopic (histological) damage score of colonic tissue in DNBS-induced colitis model; settings: DNBS rats; 1 mg/kg oral; 6 days
# Protocol: as §1
# (§2) The DNBS-induced colitis model and the control rats were euthanized in a CO2 chamber. After death, mid-abdominal incision was performed, and the colon was excised, which was then opened in a longitudinal direction (longitudinal muscle direction), washed with sterile physiological saline, and split into two parts in the longitudinal direction.
# Evaluation of microscopic damage and inflammation was performed with an optical microscope using a tissue section obtained from a specimen of the entire intestine and stained with hematoxylin/eosin. Evaluation of severity of enteritis was performed by scoring the microscopic damage (histological damage) of the samples. As described above, colonic tissues that had been excised and washed with physiological saline were used as the samples.
# (§3) The scoring was performed according to the criteria determined by making a minor amendment on the criteria reported in Non Patent Literature 11 (Non Patent Literature 12). […]
# [4] = test system: TNF; assay: TNF level in colonic tissue (ELISA), DNBS-induced colitis model; settings: DNBS rats; 1 mg/kg oral
# [5] = test system: occludin; assay: Occludin expression in colonic tissue (western blotting), DNBS-induced colitis model; settings: DNBS rats; 1 mg/kg oral; not shown in the drawing
# [6] = test system: DNBS-induced colitis model; assay: Macroscopic damage score of colonic tissue in DNBS-induced colitis model; settings: DNBS rats; 1 mg/kg oral; 6 days
# Protocol: as §1, §2
# Evaluation was performed by scoring the macroscopic damage of the samples. As described above, colonic tissues that had been excised and washed with physiological saline were used as the samples.
# as §3
# (4) Thickness (mm) of colonic tissue (colonic wall): 1 point was scored for 1 mm […]
compound,measurement,setting,value
"C[C@@H]1C[C@H]2[C@@H]3CCC4=CC(=O)C=C[C@]4(C)[C@@]3(F)[C@@H](O)C[C@]2(C)[C@@]1(O)C(=O)CO [dexamethasone, reference compound]",spleen weights compared to DNBS-induced colitis model,[1]; 1 mg/kg oral,significantly decreased
same,change in body weights,"[1]; 1 mg/kg oral immediately after DNBS, 6 days",decreased
same,IL-1β in colonic tissue (inflammation index),[2],completely prevented; also recorded: significantly decreased
same,microscopic score compared to DNBS-induced colitis model,[3],significant improvement
same,TNF in colonic tissue (inflammation index),[4],completely prevented
same,occludin expression in inflamed tissues compared to DNBS-induced colitis model,[5],increased
same,macroscopic damage score compared to DNBS-induced colitis model,[6],significant decrease
